In paper PMC11809512, “Looking for approved-medicines to be repositioned as anti-Trypanosoma cruzi agents. Identification of new chemotypes with good individual- or in combination-biological behaviours” (Memórias do Instituto Oswaldo Cruz, 2025):

System: epimastigotes of T. cruzi (Tulahuen 2 strain, DTU Tc VI)
Assay: Screening / IC50 against T. cruzi epimastigotes (growth, absorbance 610 nm, 5 days)
Type: cell-based, Trypanosoma cruzi
Details: 25 µM or 100 µg/mL; cut-off more than 65% inhibition
Protocol: Screening - Entities, dissolved in dimethylsulfoxide (DMSO, Sigma) before use and then diluted in a culture milieu, were firstly tested against epimastigotes of T. cruzi [Tulahuen 2 strain, discrete typing unit (DTU) Tc VI] as previously described.[14] ^, [15] […] The system was incubated at 28 °C for five days and to assess cell proliferation, cell density was monitored at 610 nm at time 0 (Ap0) and five days post incubation (Ap). All measures were normalised to the control population at day 0 (Ac0) and at day 5 (Ac5). Control parasites were incubated with 0.4% DMSO, corresponding to the highest DMSO concentration of the well. The percentage of parasite inhibition was calculated as: (Ap - Ap0)/(Ac5 - Ac0) × 100. This assay was independently performed three times. […] Secondly,[16] Vero (ATCC® CCL-81™) cells were infected with T. cruzi metacyclic trypomastigotes from 15 days old Dm28 clone (DTU Tc I) epimastigote cultures. […] Viability was analysed using resazurin, which is reduced to highly fluorescent resorufin. […] Fluorescence (excitation 530 nm / emission 590 nm) was measured in a Thermo Scientific Varioskan® Flash Multimode plate spectrofluorimeter instrument. […] Infected cells and amastigotes per cell were counted from randomly selected fields (400 cells per conditions). Two independent infections with trypomastigotes pre-treated with entities by two independent technicians were analysed. […]

Clc1ccc2c(c1)CCc1cccnc1C2=C1CCNCC1 [Deslor, Desloratadine]
anti-epimastigote activity in the initial screening (in words): did not show anti-epimastigote activity
